# Measured values: the supplement of paper PMC6289059
# The list shows a part of the results. Repeats are few or missing, and single values can be far off.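 Hepatocyte-like cells derived from human stem cells with CRISPR-disrupted DGUOK model liver mtDNA depletion syndrome. Each well's ATP signal was scored against other wells on the same plate, and drugs scoring 3 or above were primary hits.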
# System: DGUOK Δ14/Δ5 iPSC-derived hepatocyte-like cells (SV20)
# Assay: ATP level (CellTiter-Glo luminescence) Z score relative to plate distribution, under 2-DG glycolysis block; higher = more cellular ATP (rescue of mitochondrial ATP production)
# Details: 5 µM; treatment time: day 15 to day 20 of differentiation (5 days); 2-deoxy-D-glucose: 20 mM for 24 h before assay
row,Structure (SMILES),ATP level
1,O=c1cc(-c2ccccc2)oc2cc(O)ccc12,inactive: 0.35
2,Cc1cc(=O)oc2cc(O)cc(O)c12,inactive: 0.797
3,CC(=O)Oc1ccccc1C(=O)O,inactive: 0.272
4,CC1=C(/C=C/C(C)=C/C=C/C(C)=C/C=C/C=C(C)/C=C/C=C(C)/C=C/C2=C(C)C(=O)[C@@H](O)CC2(C)C)C(C)(C)C[C@H](O)C1=O,inactive: 0.572
5,N=C(N)NS(=O)(=O)c1ccc(N)cc1,inactive: 0.549
6,NC[C@@H]1CC[C@@H](N)[C@@H](O[C@H]2[C@H](O)[C@@H](O[C@H]3O[C@H](CO)[C@@H](O)[C@H](N)[C@H]3O)[C@H](N)C[C@@H]2N)O1,inactive: 1.61
7,CC1=C(/C=C/C(C)=C/C=C/C(C)=C/C(=O)O)C(C)(C)CCC1,inactive: 2.53
8,CCc1c(C)[nH]c2c1C(=O)C(CN1CCOCC1)CC2 (stereo not drawn),inactive: 2.58
9,COC(=O)C1OC(=O)C2OC23C1(C)CCC1C2(C)C(OC(C)=O)CC(OC(C)=O)C(C)(C)C2CC(O)C13C (stereo not drawn),inactive: 1.84
10,COc1cc(C(=O)NCCCCCC(=O)O)cc(OC)c1OC,inactive: 2.33
11,N[C@@H](CCC(=O)N[C@@H](CS)C(=O)NCC(=O)O)C(=O)O,inactive: -0.329
12,CC1=C(C(=O)O)N2C(=O)[C@@H](NC(=O)[C@H](N)C3=CCC=CC3)[C@H]2SC1,inactive: -11.1
13,CCC1(c2ccccc2)NC(=O)N(C)C1=O (stereo not drawn),inactive: 2.46
14,COc1cc2c3cc1Oc1cc(ccc1O)C[C@@H]1c4c(cc(OC)c(O)c4Oc4ccc(cc4)C[C@@H]3N(C)CC2)CC[N+]1(C)C,inactive: -11.1
15,Cc1ncc(CO)c(CO)c1O,inactive: 1.88
16,C#C[C@]1(OC(C)=O)CC[C@H]2[C@@H]3CCC4=CC(=NO)CC[C@@H]4[C@H]3CC[C@@]21CC (mixture of isomers),inactive: 0.325
17,O=C1c2ccccc2C(=O)C1c1ccc(Cl)cc1,active: 3.86
18,CC(=O)O[C@]1(C(C)=O)CC[C@H]2[C@@H]3C=C(Cl)C4=CC(=O)[C@@H]5C[C@@H]5[C@]4(C)[C@H]3CC[C@@]21C,inactive: -8.62
19,Clc1ccc(CO/N=C(\Cn2ccnc2)c2ccc(Cl)cc2Cl)c(Cl)c1,inactive: -4.9
20,N[C@@H]1CONC1=O,inactive: -0.851
21,CCCCCCCCCCCCCCCC(=O)OC[C@@H](NC(=O)C(Cl)Cl)[C@H](O)c1ccc([N+](=O)[O-])cc1,inactive: -4.56
22,COc1cc2nc(N(C)CCCNC(=O)C3CCCO3)nc(N)c2cc1OC (stereo not drawn),inactive: -1.47
23,Clc1ccc(Cn2c(CN3CCCC3)nc3ccccc32)cc1,inactive: -2.98

# 2 compounds drawn at random from the list so far:
row,Structure (SMILES),ATP level
13,CCC1(c2ccccc2)NC(=O)N(C)C1=O (stereo not drawn),inactive: 2.46
20,N[C@@H]1CONC1=O,inactive: -0.851
